The chains behind the UniProt entries cited, without tags or fusion partners.
UniProt P11473, whole entry, looked up: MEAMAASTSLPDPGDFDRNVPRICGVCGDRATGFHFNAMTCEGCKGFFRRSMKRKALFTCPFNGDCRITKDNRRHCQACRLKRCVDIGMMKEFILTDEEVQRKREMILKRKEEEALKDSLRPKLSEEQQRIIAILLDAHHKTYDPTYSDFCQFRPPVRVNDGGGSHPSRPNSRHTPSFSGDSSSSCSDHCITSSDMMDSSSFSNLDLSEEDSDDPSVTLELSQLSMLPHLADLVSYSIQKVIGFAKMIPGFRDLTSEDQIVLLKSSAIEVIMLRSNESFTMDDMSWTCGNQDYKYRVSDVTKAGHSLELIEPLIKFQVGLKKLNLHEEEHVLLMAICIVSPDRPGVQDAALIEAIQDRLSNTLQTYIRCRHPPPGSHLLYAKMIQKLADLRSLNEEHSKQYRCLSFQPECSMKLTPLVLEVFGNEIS

Several values for one entry are separate records, joined by “and”; a condition that tells them apart may be missing. Equal entries are not always repeated. Screen size: about 400,000 compounds; about 3,700 (0.93%) were called active. Inconclusive results, whose numbers are uncertain, are shown with a selection of clear calls. Calls come from the whole dose curve; as a rule, active = well fitted inhibition curve with a large enough effect; inconclusive = small, poorly fitted or top-dose-only effect, or another doubt; inactive = no such curve, though single readings can be large or run the other way. Potencies beside an inconclusive call are fits to weak or partial responses and may not hold up.
The molecules below were run against Vitamin D3 receptor (Homo sapiens) (UniProt P11473) (assay: Inhibitors of the vitamin D receptor (VDR): qHTS). Details: VDR-SRC2-3 peptide fluorescence polarization, 2 h; max response, negative = inhibition: active compounds read low.
Method in brief: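 The screen uses fluorescence polarization to detect compounds that interfere with recruitment of the SRC2-3 coactivator peptide to VDR; plates are read after 2 h at room temperature.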
With `CCCS(=O)(=O)Nc1cc2c(cc1NCc1ccccc1)n(C)c(=O)n2C` the max response, negative = inhibition was inactive: -9.58%. For `CCOc1ccc(NC(=O)c2ccccc2SC)cc1`, the Potency was inconclusive: 28.2 µM [inhibitor, partial curve, poor fit]. For `O=C(CC1S/C(=N/N=C/c2ccco2)NC1=O)Nc1cccc(Cl)c1Cl` (stereo not drawn), the max response, negative = inhibition was inactive: -13.6%. `O=C1C(Cl)=C(N2CCCCC2)C(=O)N1c1ccccc1Cl` was tested, and the Potency was inconclusive: 22.4 µM [inhibitor, full curve, poor fit]. With `C/C(CC(C)C)=N/Nc1ccc([N+](=O)[O-])cc1[N+](=O)[O-]` the Potency was inconclusive: 89.1 µM [inhibitor, partial curve, poor fit]. `C=CCCC1CN(CCCC)S(=O)(=O)c2c(F)cccc2O1` (stereo not drawn) was tested, and the Potency was active: 89.1 µM. For `CC(OC(=O)CCc1ccccc1)C(=O)Nc1ccc(Cl)cn1` (stereo not drawn), the Potency was inconclusive: 79.4 µM [inhibitor, partial curve, poor fit]. For `CS(=O)(=O)CCCCN=C=S`, the Potency was inconclusive: 28.2 µM [inhibitor, full curve]. `CC1CN(C(=S)c2cccc([N+](=O)[O-])c2)CC(C)O1` (stereo not drawn) was tested, and the max response, negative = inhibition was inactive: -0.902%. In the case of `Cc1ccc(-c2[nH]nc3c2C(c2ccoc2)C(C#N)=C(N)O3)cc1C` (stereo not drawn), the Potency was inconclusive: 50.1 µM [inhibitor, partial curve, poor fit]. With `O=C(O)CSc1nnc(-c2cccs2)n1-c1ccc(Cl)cc1` the Potency was inconclusive: 39.8 µM [inhibitor, single point]. In the case of `CCOC(=O)C(=Cc1ccc(-n2ccnc2)cc1)C(=O)OCC`, the Potency was inconclusive: 15.8 µM [inhibitor, full curve, poor fit]. `CCOC(=O)c1c(NC(=O)COc2ccc(F)cc2)sc2c1CCC(C)C2` (stereo not drawn) was tested, and the Potency was inconclusive: 79.4 µM [inhibitor, single point]. `CCN(C(=S)NC(=O)c1ccco1)c1cccc2ccccc12` was tested, and the Potency was inconclusive: 89.1 µM [inhibitor, partial curve, poor fit]. `O=C(Nc1cc(Cl)ccc1-n1cncn1)c1cc(F)cc(F)c1` was tested, and the Potency was inconclusive: 39.8 µM [inhibitor, partial curve, poor fit]. With `COC(=O)N1CCN(c2ccc(Cl)c(Cl)c2)CC1` the max response, negative = inhibition was inactive: 0.202%. For `CCCCN(C)CCNC(=O)c1nn(-c2ccc(OC)cc2)c(=O)c2c1c1ccccc1n2C`, the max response, negative = inhibition was inactive: -16.3% and inactive: -7.11%. For `CCNc1ncc2nc(-c3cc(F)cc(F)c3)c(=O)n(CCc3ccccc3)c2n1`, the Potency was inconclusive: 79.4 µM [inhibitor, single point]. For `Cc1nn(-c2ccccc2)c2nc3c(cc12)C(=O)CCC3`, the Potency was inconclusive: 89.1 µM [inhibitor, single point]. `CN1CCC(N(C)C(=S)NC(=O)c2cc(-c3cccc(Br)c3)nc3ccccc23)CC1` was tested, and the max response, negative = inhibition was inactive: -27.7%. `COc1cc(Cl)cc(C(c2c(C(=O)O)[nH]c3ccccc23)c2c(C(=O)O)[nH]c3ccccc23)c1O` was tested, and the Potency was inconclusive: 28.2 µM [inhibitor, full curve]. With `COc1ccccc1C(CC(=O)Nc1nccs1)c1ccco1` (stereo not drawn) the max response, negative = inhibition was inactive: -17.7%. With `N#C/C(=C\c1cccnc1)C(=O)Nc1cccc2ccccc12` the Potency was inconclusive: 50.1 µM [inhibitor, partial curve, poor fit]. In the case of `c1ccc(CN2CCN(c3nc(-c4ccccn4)nc4ccccc34)CC2)cc1`, the max response, negative = inhibition was inactive: -8.31%. `Cc1ccc(/C=N/N2CCN(Cc3ccccc3)CC2)o1` was tested, and the max response, negative = inhibition was inactive: -12.9%. In the case of `COc1ccc(OC)c(C(c2c(C)[nH][nH]c2=O)c2c(C)[nH][nH]c2=O)c1`, the Potency was inconclusive: 89.1 µM [inhibitor, single point]. With `CC1(OC(=O)CCc2ccccc2)C(=O)C=C2C=C(c3ccc(C#N)cc3)N(CCc3c[nH]c4ccccc34)C=C2C1=O` (stereo not drawn) the Potency was inconclusive: 89.1 µM [inhibitor, partial curve, poor fit]. With `Cn1nnnc1Sc1ncnc2scc(-c3cccc(C(F)(F)F)c3)c12` the Potency was inconclusive: 56.2 µM [inhibitor, partial curve, poor fit]. In the case of `O=C(CCN1CCN(Cc2ccccc2)CC1)NNC(=O)Nc1cccc([N+](=O)[O-])c1`, the max response, negative = inhibition was inactive: -7.89%. For `Cc1cccc(-n2nnnc2S(C)(=O)=O)c1`, the Potency was inconclusive: 12.6 µM [inhibitor, partial curve]. In the case of `ClC(Cl)(c1nnnn1-c1ccccc1)c1nnnn1-c1ccccc1`, the Potency was active: 3.55 µM. With `Fc1ccc2cnc(-c3ccccc3)c(-c3ccc(C(F)(F)F)cc3)c2c1` the max response, negative = inhibition was inactive: -13.5%. In the case of `Nc1ccccc1N=c1ssnc1Cl`, the Potency was inconclusive: 56.2 µM [inhibitor, partial curve, poor fit]. For `N=c1oc2ccc(Br)cc2cc1C(=O)NCc1ccc(F)cc1`, the max response, negative = inhibition was inactive: -4.35%. `COc1ccc(OC)c(-c2csc(NC(=O)Cc3ccc(F)cc3)n2)c1` was tested, and the max response, negative = inhibition was inactive: 2.2%. `N=C(N)c1ccc2cc(OC(=O)c3ccc(N=C(N)N)cc3)ccc2c1` was tested, and the Potency was inconclusive: 100 µM [inhibitor, single point]. In the case of `CCCCC(=O)NC(=S)NNC(=O)c1ccc(OC)cc1`, the max response, negative = inhibition was inactive: -10.1%. For `COc1cc(NC(=S)Nc2cccnc2)cc(OC)c1`, the max response, negative = inhibition was inactive: -10.5%. In the case of `Cc1ccc(CSC2=Nc3ccccc3C3=NC(CC(=O)NC4CCCCC4)C(=O)N23)cc1` (stereo not drawn), the max response, negative = inhibition was inactive: 13.6%. For `O=C(O)C=Cc1ccc(Cn2ccnc2)cc1`, the max response, negative = inhibition was inactive: -0.325%. With `N#CC1=C(N)C(C#N)(C#N)[C@H](c2cccnc2)[C@H]2CN(C(=O)OCc3ccccc3)CC=C12` the Potency was active: 12.6 µM. `CCCCOc1ccc(N(CC(=O)NC(C)(C)CC)C(=O)CCC(=O)Nc2ccccn2)cc1` was tested, and the Potency was inconclusive: 89.1 µM [inhibitor, single point]. `Cc1ccc(S(=O)(=O)CCC(=O)c2cccc([N+](=O)[O-])c2)cc1` was tested, and the Potency was active: 15.8 µM. `CCOC(=O)CNCCC(=O)c1ccc(Br)cc1` was tested, and the Potency was active: 50.1 µM. In the case of `CNC(=O)c1c(NC(=O)c2ccc(S(=O)(=O)N3CCCc4ccccc43)cc2)sc2c1CCN(C)C2`, the Potency was inconclusive: 25.1 µM [inhibitor, partial curve, poor fit]. `CCC(C)c1ccc(S(=O)(=O)N2CCN(CC(O)COCC3CCCO3)CC2)cc1` (stereo not drawn) was tested, and the max response, negative = inhibition was inactive: -15.4%. In the case of `OC(CNCc1ccc(Cl)cc1)COc1ccccc1` (stereo not drawn), the max response, negative = inhibition was inactive: 12.6%. In the case of `O=C(NCCc1ccc(Cl)cc1)c1ccc(S(=O)(=O)N2CCCC2)cc1`, the Potency was inconclusive: 70.8 µM [inhibitor, partial curve]. In the case of `CCOC(=O)CN(C(=O)Cn1nnc(-c2ccc(OC)cc2)n1)C(C(=O)NC1CCCC1)c1ccc(F)cc1` (stereo not drawn), the max response, negative = inhibition was inactive: 8.17%. With `C#C[C@]1(OC(C)=O)CCC2C3CCC4=CC(=O)CCC4C3CC[C@]21C` (stereo partly drawn) the Potency was inconclusive: 79.4 µM [inhibitor, partial curve]. For `CS/C(Nc1cc(Cl)ccc1Cl)=C(/C#N)C(=O)c1ccco1`, the Potency was inconclusive: 79.4 µM [inhibitor, single point]. In the case of `Cc1noc(C)c1CSCC(=O)Nc1cc(C(F)(F)F)ccc1N1CCCCC1`, the max response, negative = inhibition was inactive: -0.564%. `CCOC(=O)N1CCN(C(=O)c2ccc3c(c2)N(Cc2ccc(F)cc2)CCS3)CC1` was tested, and the Potency was inconclusive: 50.1 µM [inhibitor, partial curve, poor fit]. `CN(C(=O)CCS(=O)(=O)c1cc2c(cc1Cl)NC(=O)CO2)C1CCCCC1` was tested, and the Potency was inconclusive: 89.1 µM [inhibitor, single point]. In the case of `O=C(CCN1C(=O)S/C(=C\c2ccc(F)cc2)C1=O)Nc1ccc(C(=O)O)c(O)c1`, the Potency was inconclusive: 70.8 µM [inhibitor, partial curve, poor fit]. For `CC(=O)c1ccc(S(=O)(=O)NC2CC(=O)N(c3cccc(F)c3)C2)cc1` (stereo not drawn), the max response, negative = inhibition was inactive: 18.8%. With `CN1CCC(=O)N(C(CSc2ccc(Br)cc2)Cc2ccccc2)CC1` (stereo not drawn) the Potency was inconclusive: 28.2 µM [inhibitor, partial curve, poor fit]. With `COc1ccc(CNC(=O)/C=C/c2ccc(OCCCF)cc2)cc1OC` the Potency was inconclusive: 100 µM [inhibitor, partial curve, poor fit]. For `CC1(C)Cc2c(sc(NC(=O)C(=O)N3CCOCC3)c2C#N)CO1`, the Potency was inconclusive: 25.1 µM [inhibitor, partial curve, poor fit]. In the case of `Cc1cc(C(=O)OCC(=O)N2CCOCC2)c2ccccc2n1`, the Potency was inconclusive: 20 µM [inhibitor, full curve, poor fit]. For `COc1ccc(OC)c(C(=O)/C=C/c2ccccc2C(F)(F)F)c1`, the Potency was inconclusive: 89.1 µM [inhibitor, partial curve, poor fit]. With `CCOC(=O)c1ccc2c(c1)nc(-c1ccccn1)n2CC` the Potency was inconclusive: 89.1 µM [inhibitor, single point]. With `Cc1c(CCOC(=O)C23CC4(C)CC(C)(CC(C)(C4)C2)C3)sc[n+]1CC(=O)c1ccccc1` the max response, negative = inhibition was inactive: -18.6%. For `Cc1ccc(-c2ccc(/C=C(\C#N)C(N)=S)o2)c([N+](=O)[O-])c1`, the Potency was inconclusive: 56.2 µM [inhibitor, partial curve, poor fit]. With `O=C(O)c1ccc(N/N=C/c2cc3ccccc3nc2Cl)cc1` the Potency was inconclusive: 50.1 µM [inhibitor, partial curve, poor fit]. For `CC(C)c1ccc(/C=C/C(=O)O)cc1`, the max response, negative = inhibition was inactive: 7.66%. `NC(=S)N/N=C/c1ccc(-n2nncc2-c2ccc(Cl)cc2)cc1` was tested, and the max response, negative = inhibition was inactive: -0.348%. `Clc1ccccc1-c1nccc(NCc2cccs2)n1` was tested, and the Potency was inconclusive: 89.1 µM [inhibitor, partial curve, poor fit].
% is set by controls: 0 for no effect and ±100 for the full control effect; potency is the fitted concentration of half-maximal effect.
